Results published in PubChem BioAssay AID540256 (National Center for Advancing Translational Sciences (NCATS), 2011).
Out of some 300,000 compounds screened, about 3,700 (1.2%) were called active. Inconclusive means that the source gave no clear call. Such entries were picked first, then a sample of the others. The call rests on the fitted dose curve; tested in HEK293 cells. Potencies beside an inconclusive call are fits to weak or partial responses and may not hold up.

experiment: qHTS for Inhibitors of binding or entry into cells for Lassa Virus; details: Lassa virus pseudotype entry inhibition, cell reporter; activity change, negative = inhibition: at 37.9 µM (top of the series) unless noted; further: nearly all actives have a fitted effect of over 50% in size
On the % scale 0 is the no-effect control and ±100 the full control effect; potency means the concentration at half of the fitted maximal effect.

Compound | Potency | activity change, negative = inhibition
COc1cc(OC)c(/C=C2/C(=O)Nc3ccccc32)c(OC)c1 | inconclusive: 5.8 µM [inhibitor, partial curve] | 
O=C(Nc1ccccc1Cl)C1CCN(c2nc3ccccc3nc2C(F)(F)F)CC1 |  | inactive: -3.79% [at 46.1 µM]
Nc1nc2ccccc2n1C(=O)c1ccco1 | inconclusive: 20 µM [inhibitor, single point] | 
C/C=C(\C)C(=O)NNC(=O)c1sc(-c2ccccc2)nc1C |  | inactive: 10.8% [at 46.1 µM]
Cc1ccc(S(=O)(=O)Nc2cccc3ncccc23)s1 | active: 8.91 µM | 
NC(=O)c1c(NC(=O)c2ccco2)sc2c1CCC2 | inconclusive: 3.66 µM [activator, partial curve, poor fit] | 
O=C(NCCn1cc(SCc2ccccc2Cl)c2ccccc21)c1cccs1 | inconclusive: 35.5 µM [inhibitor, single point] | 
COc1cc(/C(C)=N/Nc2ccc(C(=O)O)cc2)cc(OC)c1OC | inconclusive: 10 µM [activator, partial curve] | 
NNC(=O)c1cc2cc3ccccc3nc2s1 |  | inactive: -20%
CCc1cc2c(=O)c(-c3ccc4c(c3)OCCO4)coc2cc1OC(=O)c1ccco1 | inconclusive: 0.13 µM [activator, full curve, poor fit] | 
COC(=O)CN1C(=S)N(Cc2ccccc2)C(=O)C1CC(=O)Nc1ccc(Br)cc1 (stereo not given) | inconclusive: 22.4 µM [inhibitor, single point] | 
O=C1N(Cc2ccccc2)c2ccc(Cl)cc2C1(O)c1c[nH]c2ccccc12 (stereo not given) | inconclusive: 14.1 µM [inhibitor, single point] | 
COc1cc(/C=N/NC(=O)c2cccc(S(=O)(=O)N3CCCCC3)c2)cc(Br)c1O |  | inactive: -2.95%
COc1ccccc1NC(=O)Cn1c(SCC(=O)N(C)c2ccccc2)nc2ccccc21 | inconclusive: 35.5 µM [inhibitor, single point] | 
O=S(=O)(Nc1cccc(Br)c1)c1cccc2nsnc12 | inconclusive: 35.5 µM [inhibitor, single point] | 
CC1CCCCN1S(=O)(=O)c1ccc(C(=O)Nc2nnc(-c3ccncc3)o2)cc1 (stereo not given) | inconclusive: 35.5 µM [inhibitor, partial curve, poor fit] | 
CC(C)(C)c1ccccc1NC(=S)NC1CCCCC1 |  | inactive: -10.5%
COc1cc2c(cc1OC)C(c1cccs1)N(C(=S)NC(C)C)CC2 (stereo not given) | inconclusive: 12.6 µM [inhibitor, partial curve, poor fit] | 
COc1cccc(CNC(=O)c2ccc3c(c2)c(C)c(C)n3Cc2ccccc2)c1OC | inconclusive: 3.55 µM [activator, full curve, poor fit] | 
CC(C)c1ccc(NC(=O)CS(=O)(=O)c2cccc3nsnc23)cc1 |  | inactive: 0.447% [at 46.1 µM]
COc1ccc(NS(=O)(=O)c2cc(Br)cc3c2N(C(=O)C2CC2)CC3)cc1OC | inconclusive: 7.08 µM [inhibitor, partial curve, poor fit] | 
CC1(C)C(=O)CCC2(C)C1=CCC1C2C(=O)CC2(C)C1CCC2(O)C(=O)CO (stereo not given) | inconclusive: 6.31 µM [inhibitor, single point] | 
Cc1cccc(/C=N/NC(=O)C(C)Nc2cccc3ccccc23)n1 (stereo not given) |  | inactive: -10.8%
O=C(COc1ccc(Br)cc1)NCc1cn2ccccc2n1 |  | inactive: -0.638%

Compound | Potency | activity change, negative = inhibition
O=C(COc1ccccc1Cl)Nc1ccc(Cl)cn1 | inconclusive: 14.6 µM [inhibitor, single point] | 
CC(C)(C)C(=O)Nc1ccc2nc(SCC(=O)N3CCOCC3)sc2c1 |  | inactive: 18.1% [at 46.1 µM]
O=C(c1cc(-c2ccc(Cl)cc2)on1)N1CCN(c2ccccc2)CC1 | inconclusive: 3.55 µM [inhibitor, single point] | 
COc1ccc(C(=O)C[n+]2ccccc2/C=N/O)cc1 | inconclusive: 23.1 µM [activator, single point] | 
C=CCn1c(CCC(=O)Nc2ccc(C)c(Cl)c2)nnc1SCC(=O)Nc1ccccc1C | inconclusive: 6.51 µM [inhibitor, single point] | 
CCOc1ccc(C2C(C#N)=C(N)Oc3cc(C)[nH]c(=O)c32)cc1OC (stereo not given) |  | inactive: 2.22%
O=S(=O)(Nc1cc(F)ccc1F)c1ccc2[nH]c3c(c2c1)CCCC3 |  | inactive: -9.79% [at 46.1 µM]
Cc1ccccc1C(=O)Nc1scc(-c2ccc(Br)cc2)c1C(=O)O | inconclusive: 7.94 µM [inhibitor, partial curve] | 
CCN(C(=O)c1cc([N+](=O)[O-])ccc1NCc1cccnc1)c1ccccc1 | inconclusive: 10 µM [inhibitor, partial curve, poor fit] | 
OCCNc1nc(-c2cccnc2)nc2ccccc12 |  | inactive: 15.2%
Cc1cc(NC(=O)CCCN2C(=O)c3cccnc3C2=O)no1 |  | inactive: 0.739%
CC1=Nn2c(nnc2-c2ccc(F)cc2)SC1 |  | inactive: 7.93%
C=CCc1c(C)nc(SCCC)[nH]c1=O |  | inactive: -5.4%
Cn1c2ccccc2c2c(C(=O)N3CCN(c4ccccn4)CC3)cn(C3CCCC3)c(=O)c21 | inconclusive: 17.8 µM [inhibitor, single point] | 
O=C(Nc1ccc(Cl)cn1)c1ccc([N+](=O)[O-])o1 | inconclusive: 35.5 µM [inhibitor, single point] | 
COc1ccc(-c2cc(C(F)(F)F)nc(S(C)(=O)=O)n2)cc1 | active: 23.1 µM | 
COc1cc(C=NNc2ncnc3c2cnn3-c2ccccc2)ccc1O | active: 15.8 µM | 
Cc1cccnc1NC(=S)NCCc1ccccc1 | inconclusive: 12.6 µM [activator, single point] | 
COc1ccc(CNC(=O)CN(C(=O)c2cc3sccc3n2C)C2CCCC2)cc1 | inconclusive: 11.6 µM [inhibitor, partial curve] | 
O=C(Nc1ccc(F)c(F)c1)c1cc(S(=O)(=O)NC2CCCCCC2)ccc1F |  | inactive: 1.11% [at 46.1 µM]
CC1CCCN(CCCNC(=O)c2cc3c(s2)-c2ccccc2OC3)C1 (stereo not given) | inconclusive: 35.5 µM [inhibitor, single point] | 
O=C(Cn1nnc(-c2cc(Cl)ccc2-n2cnnn2)n1)N1CCCc2ccccc21 | inconclusive: 12.6 µM [inhibitor, partial curve] | 
N=c1c(C(=O)NCCc2ccccc2)cc2c(=O)n3ccccc3nc2n1Cc1ccco1 | inconclusive: 35.5 µM [inhibitor, single point] | 
C(=N\Nc1nc2ccccc2[nH]1)/C1CCCCC1 | inconclusive: 11.2 µM [activator, partial curve] | 

Compound | Potency | activity change, negative = inhibition
Clc1cccc(-c2nc(-c3ccccn3)no2)c1 | active: 1.78 µM | 
CCn1c(-c2nonc2N)nc2c(C#CC(C)(C)O)nc(OCCNC)cc21 | inconclusive: 1.99 µM [inhibitor, full curve, poor fit] | 
CCC(=O)c1ccc(OCC(O)CN2CCN(c3ccc(F)cc3)CC2)cc1 (stereo not given) | inconclusive: 7.3 µM [inhibitor, partial curve, poor fit] | 
Cc1ccc(-c2ccc(SCC(=O)NC3CCCCC3)nn2)cc1 | inconclusive: 10 µM [inhibitor, partial curve, poor fit] | 
Cn1cc(S(=O)(=O)c2cccc(Cl)c2)c(=O)c2cc(F)c(N3CCN(c4ccc(F)cc4)CC3)cc21 |  | inactive: -12% [at 46.1 µM]
Cc1ccc(-c2noc(CNS(=O)(=O)c3ccc(F)cc3)n2)cc1 |  | inactive: -0.469% [at 46.1 µM]
CC(C)c1ccc(N(CC(=O)NC2CCCC2)C(=O)CCC(=O)Nc2ccccn2)cc1 | inconclusive: 35.5 µM [inhibitor, single point] | 
CCN(CC)CCn1c(NC(=O)c2ccc(Cl)cc2)nc2ccccc21 | inconclusive: 29.1 µM [inhibitor, single point] | 
Cn1c(SCC(=O)N/N=C/C=C/c2ccco2)nc2ccccc21 |  | inactive: 3.83%
CCC1CCCCN1C(=O)CSc1nc2c([nH]c3ccccc32)c(=O)n1C (stereo not given) | inconclusive: 29.1 µM [inhibitor, single point] | 
Cc1ccc(/C=N/Nc2nncn2N)cc1 | inconclusive: 35.5 µM [inhibitor, single point] | 
Cc1ccc(N2C(=O)/C(=C\c3ccc(C(C)C)cc3)N=C2SC2CCOC2=O)cc1 (stereo not given) | active: 5.01 µM | 
FC(F)(F)c1ccccc1CN1CCN(C2CCCCCC2)CC1 | inconclusive: 20.6 µM [inhibitor, single point] | 
Cn1cc(C2=C(c3ccc(Cl)cc3Cl)C(=O)NC2=O)c2ccccc21 | inconclusive: 7.3 µM [inhibitor, partial curve] | 
CCCCNCc1cc(OCC)c(OCC)cc1Br |  | inactive: -29.7%
Cc1cc(-c2nc3ncccc3o2)ccc1NC(=O)COc1ccccc1C |  | inactive: 0.458% [at 46.1 µM]
Cc1ccc(C(=O)Nc2ccc(S(=O)(=O)O)c3cc(S(=O)(=O)O)cc(S(=O)(=O)O)c23)cc1NC(=O)c1cccc(NC(=O)Nc2cccc(C(=O)Nc3cc(C(=O)Nc4ccc(S(=O)(=O)O)c5cc(S(=O)(=O)O)cc(S(=O)(=O)O)c45)ccc3C)c2)c1 | active: 8.88 µM | 
CCOC(=O)c1ccccc1NC(=O)Cn1cnc2c(oc3ccccc32)c1=O | inconclusive: 14.6 µM [activator, single point] | 
CCOc1ccc(N(CCC#N)S(=O)(=O)c2ccc(OC)cc2)cc1 | inconclusive: 14.6 µM [inhibitor, partial curve, poor fit] | 
COc1ccc(NC(=O)Nc2nc3c(s2)CCCC3)cc1 | inconclusive: 35.5 µM [inhibitor, single point] | 
Cn1cnc([N+](=O)[O-])c1Sc1nc(N)nc2c1ncn2C1CC(O)C(CO)O1 (stereo not given) | inconclusive: 2.24 µM [inhibitor, full curve, poor fit] | 
O=C(O)Cn1cc(C(=O)C2CC2)c2ccccc21 | inconclusive: 11.6 µM [activator, partial curve, poor fit] | 

Structures above that contain a COOH group (three):
Compound | Potency | activity change, negative = inhibition
COc1cc(/C(C)=N/Nc2ccc(C(=O)O)cc2)cc(OC)c1OC | inconclusive: 10 µM [activator, partial curve] | 
Cc1ccccc1C(=O)Nc1scc(-c2ccc(Br)cc2)c1C(=O)O | inconclusive: 7.94 µM [inhibitor, partial curve] | 
O=C(O)Cn1cc(C(=O)C2CC2)c2ccccc21 | inconclusive: 11.6 µM [activator, partial curve, poor fit] | 
